Source: ChEMBL document CHEMBL3988442, “University of Dundee, Small-Polar-MMV Screening Library” (2021).

The chains behind the UniProt entries cited, without tags or fusion partners. Residues count along the entry.
UniProt Q8IDJ8, 1-583: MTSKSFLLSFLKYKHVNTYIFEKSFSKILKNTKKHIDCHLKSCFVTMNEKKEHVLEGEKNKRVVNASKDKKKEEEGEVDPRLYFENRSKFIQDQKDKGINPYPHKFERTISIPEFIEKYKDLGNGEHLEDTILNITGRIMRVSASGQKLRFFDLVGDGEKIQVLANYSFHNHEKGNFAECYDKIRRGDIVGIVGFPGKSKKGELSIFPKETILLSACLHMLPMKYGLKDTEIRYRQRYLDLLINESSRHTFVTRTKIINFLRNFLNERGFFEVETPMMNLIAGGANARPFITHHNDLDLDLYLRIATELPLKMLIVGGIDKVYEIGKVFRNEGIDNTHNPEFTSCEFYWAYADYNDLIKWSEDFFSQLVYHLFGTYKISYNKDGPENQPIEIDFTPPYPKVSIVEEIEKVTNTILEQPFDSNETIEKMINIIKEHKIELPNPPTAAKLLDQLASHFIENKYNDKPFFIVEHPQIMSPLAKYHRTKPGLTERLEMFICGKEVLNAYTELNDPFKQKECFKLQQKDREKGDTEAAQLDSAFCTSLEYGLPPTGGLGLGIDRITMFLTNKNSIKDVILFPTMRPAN

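Lysine-tRNA ligase, Plasmodium falciparum 3D7 (UniProt Q8IDJ8). Enzyme assay of the cytosolic lysyl-tRNA synthetase in 384-well plates, read by luminescence. Compounds at 30 µM. Higher reads as stronger inhibition, judged from the few compounds that gave an IC50. Of about 69,000 compounds tested this way, about 49 (0.071%) reached 50% or more in at least one test.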

Each number is a percent effect as filed.
The record does not define 0% and 100%; most values in the screen are far below 50% and negative numbers occur (in some assays of this library far below -100).
Compounds were drawn at random from those tested, without regard to their results.

CCn1cc(Cl)c(C(=O)NCCCN(C)C)n1 gave 2.292%.
Cn1ncnc1-c1ccnc(NCCCc2ccncc2)n1 gave -3.899%.
Cc1noc(C)c1CN1C[C@@H]2OCCN(Cc3cnn(C)c3)[C@@H]2C1 gave 3.739%.
CN(c1ncc(S(N)(=O)=O)s1)C1CCc2ccccc2C1 (stereo unspecified) gave -0.7645%.
CC(C)CN1C[C@H](COCc2ccccc2)Oc2ncccc2C1=O gave 1.627%.
NC(=O)c1ccc(C(=O)N2CCCCC2C2OCCO2)cc1 (stereo unspecified) gave 6.882%.
CCNC(=O)CN1CCN(c2ccnc3c(F)ccc(F)c23)CC1 gave 7.17%.
Cc1ccc(CNC(=O)C2CCN(C(=O)c3ccccc3)CC2)n1C gave 6.086%.
Cc1cc(C[S+]([O-])CC(=O)NCc2ccccc2)no1 (stereo unspecified) gave 0.8016%.
Cc1ccc(S(=O)(=O)NC(=O)CCOCc2ccccc2)s1 gave 5.589%.
CC(=O)NC(C)C1=CCCN(Cc2ccc(C(=O)O)cc2)C1 (stereo unspecified) gave -0.5554%.
CCS(=O)(=O)c1ncc(CN(C)Cc2ccccc2Cl)n1CCOC gave -3.027%.
Cc1noc(C)c1C(=O)N1CCC(c2[nH]ncc2S(C)(=O)=O)C1 (stereo unspecified) gave 0.7556%.
CN(C)C(CNC(=O)c1ccc(-n2cnnn2)cc1)c1ccccc1Cl (stereo unspecified) gave 2.587%.
O=C(c1ccco1)N1CCn2cc(CN3CCCC3)nc2C1 gave -1.276%.
O=C(CCN1CCCCO1)NCc1cn2c(n1)SCC2 gave 5.428%.
CC(C(=O)N1CCOCC1)N1CCc2cncnc2C1 (stereo unspecified) gave 10.13%.
Cn1cc(C2CN(C(=O)Cc3coc(-c4ccccc4)n3)CCO2)cn1 (stereo unspecified) gave 3.063%.
CN(C)C(=O)[C@H]1C[C@@H]2CN(CCc3ccccc3)C[C@H]1O2 gave -2.856%.
CC(=O)NCCCC(=O)N1CCc2[nH]c(-c3ccccc3)nc2C1 gave 1.901%.
CSc1ccc(CNc2n[nH]c(C)n2)cc1 gave -7.172%.
Cc1csc(C(=O)NCCn2nc(-n3cncn3)ccc2=O)c1 gave -3.609%.
O=C(NCc1ccc(F)cc1)NCC(O)(c1ccco1)C1CC1 (stereo unspecified) gave -1.415%.
Cc1ccoc1C(=O)NC1CCN(Cc2csc3c(F)cccc23)CC1 gave 2.202%.
Cc1ccc2c(ccn2CCC(=O)O)c1 gave 2.612%.
Cc1cc(C2CCCN2Cc2ccc(C(=O)Nc3nccs3)cc2)on1 (stereo unspecified) gave 2.073%.
Cc1cc(C(=O)NCC2SCCc3ccccc32)no1 (stereo unspecified) gave 0.0113%.
CCN(CC)CCCNc1nccc(-c2cn(C)nc2C)n1 gave 8.081%.
Cc1nc2c(c(N3CCC4(CCCNC4=O)C3)n1)CCC2 (stereo unspecified) gave 1.512%.
COc1ccc(OC)c(-n2cnnc2CN)c1 gave 2.956%.
COCCOc1ccc(NC(=O)N2CCCC2c2cccs2)cn1 (stereo unspecified) gave 29.04%.
COc1ccc(CNC(=O)CCN2CCOC(C(F)(F)F)C2)cc1 (stereo unspecified) gave 3.638%.
CCNC(=O)NCC1(CN2CCOCC2)CCCCC1 gave 6.829%.
O=C1COC[C@H]([C@H](O)c2ccc(NC(=O)c3cccnc3)cc2)N1 gave 4.334%.
CCn1ccnc1CN1CCCC1c1noc(C2CC2)n1 (stereo unspecified) gave -0.4921%.
CCc1nc2n(n1)CC(NCc1ncc(-c3ccccc3)o1)CC2 (stereo unspecified) gave 4.907%.
O=C1NCC2(CCN(C(=O)c3ccc4c(c3)CCCO4)CC2)O1 gave 2.812%.
CCCC(NC(=O)c1cncc(C)c1)c1nnn[nH]1 (stereo unspecified) gave 4.414%.
CCn1cc(NC(=O)CN2CCC(Oc3ccc(F)cc3)CC2)c(C)n1 gave 1.871%.
COc1cc(C2(C(=O)N3CCCC(n4cncn4)C3)CC2)ccc1C (stereo unspecified) gave -0.9387%.
COCC(=O)N1CCC(C(=O)N(C)CCCc2nccn2C)CC1 gave 3.774%.
CCOC(=O)[C@@H]1[C@@H](c2ccccc2)CN2CCN(C(=O)C3CC3)C[C@H]12 gave 0.246%.
Cc1n[nH]c(C2CN(Cc3ncc(C(C)C)o3)CCO2)n1 (stereo unspecified) gave 4.608%.
CC(=O)N1CCCN(CCn2nc3ccccn3c2=O)CC1 gave 0.4704%.
Cc1ncoc1C(=O)N1CCCC(c2ccc3c(N)nn(C)c3n2)C1 (stereo unspecified) gave 2.13%.
O=C(CC1NC(N2CCc3ccccc32)=NC1=O)Nc1ccc(Cl)cc1 (stereo unspecified) gave 4.855%.
CCc1nc(-c2cncnc2C2CCCNC2)no1 (stereo unspecified) gave -0.05661%.
COc1ccccc1CC1CCCN(CCN2CCOC2=O)C1 (stereo unspecified) gave 3.879%.
CN(C)CC1(O)CCCN(C(=O)Cc2ccc(Cl)c(Cl)c2)C1 (stereo unspecified) gave 2.536%.

5 of the entries, repeated:

- O=C(CCN1CCCCO1)NCc1cn2c(n1)SCC2 | 5.428%
- CN(C)C(=O)[C@H]1C[C@@H]2CN(CCc3ccccc3)C[C@H]1O2 | -2.856%
- O=C1COC[C@H]([C@H](O)c2ccc(NC(=O)c3cccnc3)cc2)N1 | 4.334%
- CN(C)CC1(O)CCCN(C(=O)Cc2ccc(Cl)c(Cl)c2)C1 (stereo unspecified) | 2.536%
- COCCOc1ccc(NC(=O)N2CCCC2c2cccs2)cn1 (stereo unspecified) | 29.04%